# From article PMC7560216
# T1: Apl5-TurboID-V5 (S. cerevisiae) (UniProt Q08951)
# T1 sequence: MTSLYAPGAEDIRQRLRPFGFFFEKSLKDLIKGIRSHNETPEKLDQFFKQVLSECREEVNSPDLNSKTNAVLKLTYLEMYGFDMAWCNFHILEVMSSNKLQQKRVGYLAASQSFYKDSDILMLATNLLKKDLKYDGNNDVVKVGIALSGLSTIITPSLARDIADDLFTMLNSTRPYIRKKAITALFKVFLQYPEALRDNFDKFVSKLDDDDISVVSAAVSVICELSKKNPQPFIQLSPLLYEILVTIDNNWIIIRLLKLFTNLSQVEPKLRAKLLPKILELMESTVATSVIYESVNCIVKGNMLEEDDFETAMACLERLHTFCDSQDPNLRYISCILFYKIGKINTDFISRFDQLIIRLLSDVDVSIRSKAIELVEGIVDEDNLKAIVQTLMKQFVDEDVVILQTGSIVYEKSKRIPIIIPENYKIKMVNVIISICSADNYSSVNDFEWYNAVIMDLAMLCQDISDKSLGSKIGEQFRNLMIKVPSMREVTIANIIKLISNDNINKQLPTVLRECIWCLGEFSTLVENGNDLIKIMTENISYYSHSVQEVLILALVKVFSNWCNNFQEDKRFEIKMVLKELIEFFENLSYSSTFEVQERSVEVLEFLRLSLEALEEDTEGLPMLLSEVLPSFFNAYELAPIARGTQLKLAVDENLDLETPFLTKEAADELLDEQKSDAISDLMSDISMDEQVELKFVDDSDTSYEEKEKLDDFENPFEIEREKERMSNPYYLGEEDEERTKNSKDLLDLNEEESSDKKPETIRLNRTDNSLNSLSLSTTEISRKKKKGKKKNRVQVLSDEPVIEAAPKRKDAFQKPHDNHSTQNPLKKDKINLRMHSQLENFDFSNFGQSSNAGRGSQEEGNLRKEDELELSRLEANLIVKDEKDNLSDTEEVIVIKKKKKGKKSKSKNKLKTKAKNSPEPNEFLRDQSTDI
# Legend:
# [1] = molecular target: T1, Apl5-TurboID-V5 (S. cerevisiae); assay: proximity labelling; Apl5-TurboID-V5 in the wild-type background, YPD, 100 μM biotin for 3 h; denaturing lysis, streptavidin beads, label-free mass spectrometry against wild-type cells; n = 3
# [2] = molecular target: T1, Apl5-TurboID-V5 (S. cerevisiae); assay: proximity labelling; Apl5-TurboID in a GAL1pr-Vps41-GFP-Fis1 background, cells grown in YPG; streptavidin-biotin pulldown, label-free mass spectrometry against control cells; n = 3
binding [1],binding [2],Binder
binds,,"Apm3 (protein, UniProt P38153 1-483) MYLSFYITDTKNKLIFQYLLGATAPSFKHLWTRVQSTCPQLLEDSSSDDYLDHSMVGRDLEVYKYFSVINKLNYWCLASTSKSKGPLDCFTFLETIDRILLEYFDKDKLSIKKIVNNYDRISLIFNCCVEAGEPNVSDMLYVNKIKEAVPERSDLSKFISSTAHNLQQAVQLPQQRQQQLQQNQISRGSNSLIENEEIVPWRTSRASKHENNELYVDLLETFHVVFEKKKSHLRLLTGSIHGIVDVRSYLNDNPLVAVKLNTMGNDIGIPSLHDCVEINDGVFSPSNITFIPPDGKFRLLEYSVDLSSQVKQSGVRMNSIGLMSLHFQNGLGKDSDEFELSLNIENFKKVSQVDDLKIDLQFNVENADPNEIAYKIKILRNTHGRFENSIIMGQGQWIFDKSTATGTVPVLRGCIEYENTGPNFTKKVDLQTVSLEYSYIGQSASGIYVEAIDIVSGLTIGKNTKLYKGAKYKTQTGNFQVRL"
binds,binds,"Apl6 (protein, UniProt P46682 1-809) MVDSIHRIASALDTAKVITREAAAVATSKLGESSYTYYSQNINPQQLVTLLNSRNSREVRDAMKRIISIMASDDDSIDVQLYFADVVKNITTNDTKVKRLIHLYLLRFAENDPNLTLLSINSLQKSLSDSNSELRCFALSALSDMKMSSLAPIILHTVKKLVTDPSAMVRGEVALAIIKLYRAGKNDYHEELLDILKELMADTDPKVISCAVLAYKECYADHLELLHGHFRRYCRIIKQLDSWSQSYLIELLIKYCKQYLPKPTVVDKSSEGSPRSCPLPDKYNEIEYPSYEVVNDPDLDLFLQSLNCLIYSSNPTVILSCCNALYQLASPLQMKNTKFIEALVRTVTMTENQGNKEMLLQAIHFLSILDQTLFLPYTKKFYVFPKDPIVASIWKIQILSTLINESNVKEIFKELKYYVASAHFPENVVIMAVKSLSRCGQLSTSWESHVMKWLIDHMESHNLSASVLDAYVNVIRMLVQKNPTKHLRIIFKLADLLTVQTSLADNARAGIVWLFGEIASIEFKICPDVLRRLIQNFSNEGPETRCQILVLSAKLLSYDIDNFKQAQVTGSEENNQNPPYYDFSGSRISQMYNAVLYLAKYDDEFDIRDRARMISSLFDSGKYEIVSLLLQAPKPTARSDDFIVSARLETHTPEIKEFFRMLPWNTEITEVGETGNDIREGAELKDYNKYKKSFSSQSFITNNSARSFTSSSNAKLTGINDGDSNSISGKGNVNTFTSQNGKKYRLQSLDEFFSDIPERKSKPRKIIKVVEESSDEDEDESEESSDDDEYSDSSLGTSSSGTSSSHLEL"
binds,binds,"Meh1 (Ego1) (protein, UniProt Q02205 1-184) MGAVLSCCRNHSGEENEALLREQQAGYGSQGNANDEYDAEQMRLKEHEHEQKLLAREQELRDIVANTNDKLIDISMINNSGIVIQGTDLQEALDKRQQEEGGDSREDERSAGDDNLSGHSVPSSGSAQATTHQTAPRTNTFTLLTSPDSAKISKEQLKKLHSNILNEIFSQSQVNKPGPLTVPF"
binds,binds,"Age2 (protein, UniProt P40529 1-298) MSTSVPVKKALSALLRDPGNSHCADCKAQLHPRWASWSLGVFICIKCAGIHRSLGTHISKVKSVDLDTWKEEHLVKLIQFKNNLRANSYYEATLADELKQRKITDTSSLQNFIKNKYEYKKWIGDLSSIEGLNDSTEPVLHKPSANHSLPASNARLDQSSNSLQKTQTQPPSHLLSTSRSNTSLLNLQVSSLSKTTSNTSVTSSATSIGAANTKTGNRVGEFGQRNDLKKSILSLYSKPSAQTQSQNSFFTSTTPQPCNTPSPFVNTGITATNNNSMNSNSSSNISLDDNELFKNVWS"
binds,,"Yck3 (protein, UniProt P39962 1-524) MSQRSSQHIVGIHYAVGPKIGEGSFGVIFEGENILHSCQAQTGSKRDSSIIMANEPVAIKFEPRHSDAPQLRDEFRAYRILNGCVGIPHAYYFGQEGMHNILIIDLLGPSLEDLFEWCGRKFSVKTTCMVAKQMIDRVRAIHDHDLIYRDIKPDNFLISQYQRISPEGKVIKSCASSSNNDPNLIYMVDFGMAKQYRDPRTKQHIPYRERKSLSGTARYMSINTHFGREQSRRDDLESLGHVFFYFLRGSLPWQGLKAPNNKLKYEKIGMTKQKLNPDDLLLNNAIPYQFATYLKYARSLKFDEDPDYDYLISLMDDALRLNDLKDDGHYDWMDLNGGKGWNIKINRRANLHGYGNPNPRVNGNTARNNVNTNSKTRNTTPVATPKQQAQNSYNKDNSKSRISSNPQSFTKQQHVLKKIEPNSKYIPETHSNLQRPIKSQSQTYDSISHTQNSPFVPYSSSKANPKRSNNEHNLPNHYTNLANKNINYQSQRNYEQENDAYSDDENDTFCSKIYKYCCCCFCCC"
binds,,"Vps1 (protein, UniProt P21576 1-704) MDEHLISTINKLQDALAPLGGGSQSPIDLPQITVVGSQSSGKSSVLENIVGRDFLPRGTGIVTRRPLVLQLINRRPKKSEHAKVNQTANELIDLNINDDDKKKDESGKHQNEGQSEDNKEEWGEFLHLPGKKFYNFDEIRKEIVKETDKVTGANSGISSVPINLRIYSPHVLTLTLVDLPGLTKVPVGDQPPDIERQIKDMLLKYISKPNAIILSVNAANTDLANSDGLKLAREVDPEGTRTIGVLTKVDLMDQGTDVIDILAGRVIPLRYGYIPVINRGQKDIEHKKTIREALENERKFFENHPSYSSKAHYCGTPYLAKKLNSILLHHIRQTLPEIKAKIEATLKKYQNELINLGPETMDSASSVVLSMITDFSNEYAGILDGEAKELSSQELSGGARISYVFHETFKNGVDSLDPFDQIKDSDIRTIMYNSSGSAPSLFVGTEAFEVLVKQQIRRFEEPSLRLVTLVFDELVRMLKQIISQPKYSRYPALREAISNQFIQFLKDATIPTNEFVVDIIKAEQTYINTAHPDLLKGSQAMVMVEEKLHPRQVAVDPKTGKPLPTQPSSSKAPVMEEKSGFFGGFFSTKNKKKLAALESPPPVLKATGQMTERETMETEVIKLLISSYFSIVKRTIADIIPKALMLKLIVKSKTDIQKVLLEKLYGKQDIEELTKENDITIQRRKECKKMVEILRNASQIVSSV"
binds,binds,"Vac7 (protein, UniProt P53950 1-1165) MTEEDRKLTVETETVEAPVANNLLLSNNSNVVAPNPSIPSASTSTSPLHREIVDDSVATANTTSNVVQHNLPTIDNNLMDSDATSHNQDHWHSDINRAGTSMSTSDIPTDLHLEHIGSVSSTNNNSNNALINHNPLSSHLSNPSSSLRNKKSSLLVASNPAFASDVELSKKKPAVISNNMPTSNIALYQTARSANIHGPSSTSASKAFRKASAFSNNTAPSTSNNIGSNTPPAPLLPLPSLSQQNKPKIIERPTMHVTNSREILLGENLLDDTKAKNAPANSTTHDNGPVANDGLRIPNHSNADDNENNNKMKKNKNINSGKNERNDDTSKICTTSTKTAPSTAPLGSTDNTQALTASVSSSNADNHNNNKKKTSSNNNGNNSNSASNKTNADIKNSNADLSASTSNNNAINDDSHESNSEKPTKADFFAARLATAVGENEISDSEETFVYESAANSTKNLIFPDSSSQQQQQQQQPPKQQQQQQNHGITSKISAPLLNNNKKLLSRLKNSRHISTGAILNNTIATISTNPNLNSNVMQNNNNLMSGHNHLDELSSIKQEPPHQLQQQQPPMDVQSVDSYTSDNPDSNVIAKSPDKRSSLVSLSKVSPHLLSSTSSNGNTISCPNVATNSQELEPNNDISTKKSLSNSTLRHSSANRNSNYGDNKRPLRTTVSKIFDSNPNGAPLRRYSGVPDHVNLEDYIEQPHNYPTMQNSVKKDEFYNSRNNKFPHGLNFYGDNNVIEEENNGDSSNVNRPQHTNLQHEFIPEDNESDENDIHSMFYYNHKNDLETKPLISDYGEDEDVDDYDRPNATFNSYYGSASNTHELPLHGRMPSRSNNDYYDFMVGNNTGNNNQLNEYTPLRMKRGQRHLSRTNNSIMNGSIHMNGNDDVTHSNINNNDIVGYSPHNFYSRKSPFVKVKNFLYLAFVISSLLMTGFILGFLLATNKELQDVDVVVMDNVISSSDELIFDITVSAFNPGFFSISVSQVDLDIFAKSSYLKCDSNGDCTVMEQERKILQITTNLSLVEESANNDISGGNIETVLLGTAKKLETPLKFQGGAFNRNYDVSVSSVKLLSPGSREAKHENDDDDDDDGDDGDDENNTNERQYKSKPNARDDKEDDTKKWKLLIKHDYELIVRGSMKYEVPFFNTQKSTAIQKDSMVHPGKK"

# These are yes or no findings as the source states them, for the method shown. Binding seen in cells or lysates may run through a third protein. A yes stands for co-enrichment or nearness to the bait. Other partners may have been found. Sequences can lack the tags named with a protein.
